From doi:10.1101/2025.11.03.686288
These are yes or no findings as the source states them, for the method shown. Sequences can lack the tags named with a protein.

Molecular target: T1, S. cerevisiae Sgt2, GAL4 fusion (S. cerevisiae) (UniProt Q12118)
T1 sequence: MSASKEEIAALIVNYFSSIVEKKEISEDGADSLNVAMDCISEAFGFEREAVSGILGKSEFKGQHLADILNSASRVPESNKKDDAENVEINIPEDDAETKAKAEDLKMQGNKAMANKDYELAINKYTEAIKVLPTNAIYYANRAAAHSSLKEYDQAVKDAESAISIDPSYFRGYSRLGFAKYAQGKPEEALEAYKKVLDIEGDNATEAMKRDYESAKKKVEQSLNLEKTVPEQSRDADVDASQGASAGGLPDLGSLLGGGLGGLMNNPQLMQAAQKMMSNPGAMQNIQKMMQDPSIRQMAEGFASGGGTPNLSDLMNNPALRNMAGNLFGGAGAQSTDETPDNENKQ
Test: two-hybrid

In the case of “GAL4-AD fusion of T. brucei PEX19 full length”, the binding is reported as “no binding”.
In the case of “T. brucei PEX19 Δ30aa, GAL4 fusion (domain or fragment)”, the binding is reported as “no binding”.
